Patent publication US6054115A, “Hydroxymethyl phosphine compounds for use as diagnostic and therapeutic pharmaceuticals and method of making same” (priority 1998, dated 2000)

Test: Elution of THP and 99mTc-THP through amine based (aminopropyl Sep-Pak) column

## OCP(CO)CO [THP, Tris(Hydroxymethyl)Phosphine]
Amino propyl SepPak column, 500 mg sorbent
  Elution: < 2%
Aminopropyl Sep-Pak
  uncomplexed THP attached to the column: > 99%
Silica gel (60-200 mesh) column, 500 mg
  Blank (elution): > 99%
